Results on 54 sequences are retold here after article PMC7819943, “Rice protein-binding microarrays: a tool to detect cis-acting elements near promoter regions in rice”.

Protein sequences, listed by entry. Tags and fused reporters are not part of them.
UniProt Q0JBA9, entry or part of it: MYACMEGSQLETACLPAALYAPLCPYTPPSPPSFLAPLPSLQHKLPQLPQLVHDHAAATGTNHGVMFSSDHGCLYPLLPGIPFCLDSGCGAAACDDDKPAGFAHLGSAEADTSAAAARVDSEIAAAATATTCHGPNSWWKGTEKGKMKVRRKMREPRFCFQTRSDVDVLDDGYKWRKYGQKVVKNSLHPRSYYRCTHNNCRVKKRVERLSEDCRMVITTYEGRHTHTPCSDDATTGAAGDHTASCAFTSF

Some of the results follow.

In the test the target is OsWRKY34 (Oryza sativa, UniProt Q0JBA9 1-250). As to the kind of experiment: protein-binding microarray (RPBM); PBS, 2% BSA, 51.3 ng/ul salmon testes DNA, 50 uM zinc acetate, 200 nM TF, 25 C, 1 h; high values mean tight binding. As to conditions: protein: recombinant; tags: N-terminal polyhistidine and DsRed monomer fusion (pET32a); label: CyDye5-dUTP incorporated in the synthesized complementary strand; 3' TTTTT single-stranded linker to array surface; dsDNA, one strand shown. A digest of the protocol: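 Per-feature fluorescence intensity (arbitrary units), read on an Axon 4000B scanner, is the binding signal. Transcription factors carrying an N-terminal polyhistidine tag and DsRed fusion were expressed in E. coli BL21-CodonPlus and purified on Ni–NTA. A custom Agilent array, made double-stranded by primer extension with Cy5-dUTP and blocked with 2% BSA, was incubated with 200 nM protein in PBS, 2% BSA, salmon testes DNA and 50 µM zinc acetate at 25 °C for 1 h and then washed.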
On to “CTTTATACTCCACTAGTATTTGTCAAATCTTTATTTTTCTCGGAGTCACCTAGTGCAG”, for which the binding signal was 12400 fluorescence intensity (a.u.). As for “CATAACATCGCAATTACTCCATCCGTCCCAAAAAAAACTTCGGAGTCACCTAGTGCAG”, the figure is 9250 fluorescence intensity (a.u.); as for “ATCCACCGCGCCGCCGTCCCGCATGCTCTGGCCGCTGCTCCGGAGTCACCTAGTGCAG”, 9630 fluorescence intensity (a.u.). In the case of “CGGTTTGTTCACCCAATCTGGTTCGAGCTGACTCGTGTGTCGGAGTCACCTAGTGCAG”, the binding signal is 10100 fluorescence intensity (a.u.).

For “GTTGGGCATTGAACCAAATAACGGCCCTTTGCTTTCAACACGGAGTCACCTAGTGCAG”, the binding signal is 8410 fluorescence intensity (a.u.). Next, “GACCTGAAGTTCTCGTTGTGTTGGCCTGCGTTTTTATCTGCGGAGTCACCTAGTGCAG”: 16800 fluorescence intensity (a.u.). Next, “TGTGATTTGCACCGCATACTTTCCCCGACAATAGATCATCCGGAGTCACCTAGTGCAG”: 8850 fluorescence intensity (a.u.); “CACTTCTCCTTCTCCTGCGCCGCCTCATCTTATCTCGCCACGGAGTCACCTAGTGCAG”: 11400 fluorescence intensity (a.u.); “CTCGTGCTCCTATTCCGCTTGTCCTTATCTCGGCGTCCGACGGAGTCACCTAGTGCAG”: 11700 fluorescence intensity (a.u.). Take “TCCAACTCATTACCAAAGCGACCGACACAAATCCAAAAATCGGAGTCACCTAGTGCAG”: the binding signal is 8060 fluorescence intensity (a.u.). Next, “GACTAATCCCGCGTCACGAACTTGCTAATCAGTCAATAAACGGAGTCACCTAGTGCAG”: 8620 fluorescence intensity (a.u.); “GAAGCTACCCGTCTCTGCTAACCACCAAGCTCGAGCAAATCGGAGTCACCTAGTGCAG”: 9090 fluorescence intensity (a.u.). Next, “ATGAATAATTGCATTACTTTTTGCTTGCTGTTTTCTGAATCGGAGTCACCTAGTGCAG”: 8320 fluorescence intensity (a.u.); “TTTGCAGGTTTCGTTTGCATTTGCGGGGCGGGCATATATGCGGAGTCACCTAGTGCAG”: 21600 fluorescence intensity (a.u.); “CCGCACTGGTCTTGCCCTTTTAAGCGCCGGCGCTTCCGTGCGGAGTCACCTAGTGCAG”: 8920 fluorescence intensity (a.u.).

Turning to “TATTATGTACTCCGTAGAATTTATTGTCGTCTTATGTTTGCGGAGTCACCTAGTGCAG”, the binding signal was 8360 fluorescence intensity (a.u.).

Turning to “CACCATCGCCGCTCTAGCTAGCTCCCGCCGGCCGCCACCACGGAGTCACCTAGTGCAG”, the binding signal was 9800 fluorescence intensity (a.u.). Next, “CAAATTAGATGTTATTTTGACTTTTTTTTACAATATTTGACGGAGTCACCTAGTGCAG”: 10600 fluorescence intensity (a.u.); “AAACATCTCCTTCGTCTTCCCTACGCGTCCACCCGAAAAACGGAGTCACCTAGTGCAG”: 9380 fluorescence intensity (a.u.); “GCGCCACCCACCCTACCCGCGGTCGCCGCCGCCGCGCCGGCGGAGTCACCTAGTGCAG”: 8700 fluorescence intensity (a.u.). Next, “CCTTGCACCACTAGTCTCTCTTCACTCCGGCGAATCCATTCGGAGTCACCTAGTGCAG”: 9160 fluorescence intensity (a.u.).

“ATGTTTGTTTGGTTGACTGCACTTGGTCCGACGGATGAAACGGAGTCACCTAGTGCAG”: the binding signal was 8720 fluorescence intensity (a.u.). Next, “ACATGGGCAGTTGTGTGAATTGCTGGAGAGGACCCAAGGTCGGAGTCACCTAGTGCAG”: 8330 fluorescence intensity (a.u.); “TTAGCACATTTTGACCCTAATTCTTTTTCTTACCTATGTTCGGAGTCACCTAGTGCAG”: 8370 fluorescence intensity (a.u.); “CGGAGTCGGTCAAGCTTAACCACTATTCCTTTCCGGATTGCGGAGTCACCTAGTGCAG”: 61500 fluorescence intensity (a.u.).

As to “CTCATCGTGCCTTGGACGCCAATTCTCTCTCTCTCTCTTCCGGAGTCACCTAGTGCAG”, the binding signal is 8310 fluorescence intensity (a.u.). Next, “CTGATATTTGCAAAGTACTTTGACCGGGTCAGCTTGATCACGGAGTCACCTAGTGCAG”: 9020 fluorescence intensity (a.u.); “ACAATTCCTGCTAGATAACTGACTTTCGCATGTTATGCCACGGAGTCACCTAGTGCAG”: 8120 fluorescence intensity (a.u.). Next, “TTCGGCTTGTCCCCAAGTGTATGACTTAAAACCTTCCGGACGGAGTCACCTAGTGCAG”: 8030 fluorescence intensity (a.u.); “TATATTTTCCCTCGTTACAAACTATTACTACCTCAGTTTTCGGAGTCACCTAGTGCAG”: 9810 fluorescence intensity (a.u.). As to “TCGCCGCCCTTTTGCTTCCCGCTCTCTCGCTCGCCATCGCCGGAGTCACCTAGTGCAG”, the binding signal is 10100 fluorescence intensity (a.u.).

For the sequence “CGCGCGCGGGGCCTTGGAAGTGTTCGATCGCGAGCGTCTCCGGAGTCACCTAGTGCAG”, the binding signal is 8090 fluorescence intensity (a.u.). Next, “GAGGAGAGCAGAACAGAACAAGAGGAGGAGAACAAAAAAACGGAGTCACCTAGTGCAG”: 8230 fluorescence intensity (a.u.). As for “TGTATTGTTGATTGGTTTCGTGCTGCTAAAGTTTTAAAAACGGAGTCACCTAGTGCAG”, the binding signal was 8590 fluorescence intensity (a.u.).

“GTGTGTGCTGTGGTGGAGAGGAGAAAGGGAGGAAGAAGAGCGGAGTCACCTAGTGCAG”: the binding signal was 8140 fluorescence intensity (a.u.). Next, “GGGGTTTGTTTATCTCGCTGAATTGATTGTGTCACAGTATCGGAGTCACCTAGTGCAG”: 11400 fluorescence intensity (a.u.). Regarding “AGTTCGCTATCTCGCTCCAGTGTCCAAATCGCGCACAAGTCGGAGTCACCTAGTGCAG”, the binding signal was 9740 fluorescence intensity (a.u.). As for “GGTTATAGGGCTTGTTTGGTTCTTTACCCTACCAATTCATCGGAGTCACCTAGTGCAG”, the figure is 9880 fluorescence intensity (a.u.).

Consider “ATTGTCTCTGTGCATGCACTTGTGTTTGCTGCACTACGACCGGAGTCACCTAGTGCAG”, for which the binding signal was 11400 fluorescence intensity (a.u.). Next, “CCTTCTTCCTCCCTCTCATCTCTCTCCATTGCTAGCTCCTCGGAGTCACCTAGTGCAG”: 8250 fluorescence intensity (a.u.). Next, “ACACCGTTCTTCGCTGCCCACATCGTCGCCCGTAGTTGTTCGGAGTCACCTAGTGCAG”: 8120 fluorescence intensity (a.u.); “CCTGCTATTGTACCTGCTCTAAGCCAGCTATAACCATATACGGAGTCACCTAGTGCAG”: 8170 fluorescence intensity (a.u.); “GCCCGCTGCTATTCTCTCTCATCTTTTATCCTATTAAAATCGGAGTCACCTAGTGCAG”: 13200 fluorescence intensity (a.u.). Next, “GAATTGAGTTCTTGGTGGGGCATCCTTGTAGCTTTGGGAGCGGAGTCACCTAGTGCAG”: 9200 fluorescence intensity (a.u.); “GTCCAGTACTCCAGTCATGTACCAACCCTTCGTCCCAAGTCGGAGTCACCTAGTGCAG”: 9560 fluorescence intensity (a.u.); “CGTCCTCCGGGTCACTCGTTTCCGCGCGCAAGGTGTTCGACGGAGTCACCTAGTGCAG”: 8300 fluorescence intensity (a.u.). Regarding “ACAATAGTCTGTGTGATAACTCTTTGCATGTCAACATACACGGAGTCACCTAGTGCAG”, the binding signal is 8280 fluorescence intensity (a.u.). As for “CCAGTAGCATTTCTGCTCTACCACATCCATCTATCATCGTCGGAGTCACCTAGTGCAG”, the figure is 9350 fluorescence intensity (a.u.). Next, “GATCCGTCGAATTCGAGGGTAACTTTTATTTCCGCTAAAACGGAGTCACCTAGTGCAG”: 8900 fluorescence intensity (a.u.). “TTTTCCAAACCTCTCGTCTCTCAACTTTTTCAAACCTATCCGGAGTCACCTAGTGCAG”: the binding signal is 8180 fluorescence intensity (a.u.).

In the case of “GTGGGGCTCGGGTTCCGGCCGGTGTAGGGGAGGGGAGATGCGGAGTCACCTAGTGCAG”, the binding signal is 15700 fluorescence intensity (a.u.). For “CTGTCAATCTGCATATATCTGTCTCTCTTACTCACTAACACGGAGTCACCTAGTGCAG”, the binding signal was 10400 fluorescence intensity (a.u.). As for “TGTATCCAAAATCATTGTTTAGCCTGGTCAAACTGGTCAACGGAGTCACCTAGTGCAG”, the figure is 8320 fluorescence intensity (a.u.). For the sequence “TCTGATTATGTGTTGCATATTTGCTTAGACGCTCATTTTCCGGAGTCACCTAGTGCAG”, the binding signal was 10400 fluorescence intensity (a.u.).
